No constants are given. Whether binding was seen depends on the method and setting. Binding seen in cells or lysates may run through a third protein. A yes stands for co-enrichment or nearness to the bait. Other partners may have been found. Sequences can lack the tags named with a protein.
Key:
Test in all cases: affinity purification with mass spectrometry; FLAG-HA tandem purification from high-salt (400 mM KCl) nuclear extracts of HeLa S3 stably expressing the FH-tagged bait, dialysed to KETNG150; eluate analysed by mass spectrometry; empty vector as control
[1] = molecular target: T1, FLAG-HA-SPATA5L1, stably expressed in HeLa S3 (human) (UniProt Q9BVQ7)
T1 sequence: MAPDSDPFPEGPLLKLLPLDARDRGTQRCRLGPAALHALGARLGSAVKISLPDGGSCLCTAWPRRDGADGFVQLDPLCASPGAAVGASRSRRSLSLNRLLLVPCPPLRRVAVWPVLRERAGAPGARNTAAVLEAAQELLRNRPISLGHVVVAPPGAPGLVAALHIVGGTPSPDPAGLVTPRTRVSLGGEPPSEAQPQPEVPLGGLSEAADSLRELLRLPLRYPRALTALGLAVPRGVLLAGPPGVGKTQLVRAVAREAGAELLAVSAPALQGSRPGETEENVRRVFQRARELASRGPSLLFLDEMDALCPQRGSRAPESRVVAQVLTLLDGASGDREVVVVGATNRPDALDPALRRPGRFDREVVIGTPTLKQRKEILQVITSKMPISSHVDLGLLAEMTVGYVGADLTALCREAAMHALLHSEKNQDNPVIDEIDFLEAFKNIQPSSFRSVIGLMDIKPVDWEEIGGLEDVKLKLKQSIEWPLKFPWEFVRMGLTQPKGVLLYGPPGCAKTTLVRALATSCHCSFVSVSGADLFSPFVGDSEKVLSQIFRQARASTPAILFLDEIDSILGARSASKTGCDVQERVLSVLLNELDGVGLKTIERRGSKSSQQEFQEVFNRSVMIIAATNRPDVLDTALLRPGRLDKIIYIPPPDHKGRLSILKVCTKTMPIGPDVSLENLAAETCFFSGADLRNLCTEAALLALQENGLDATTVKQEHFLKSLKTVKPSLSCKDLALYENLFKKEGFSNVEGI

Sequences of proteins named here, by UniProt entry; tags and fusion partners are left off.
UniProt O60673: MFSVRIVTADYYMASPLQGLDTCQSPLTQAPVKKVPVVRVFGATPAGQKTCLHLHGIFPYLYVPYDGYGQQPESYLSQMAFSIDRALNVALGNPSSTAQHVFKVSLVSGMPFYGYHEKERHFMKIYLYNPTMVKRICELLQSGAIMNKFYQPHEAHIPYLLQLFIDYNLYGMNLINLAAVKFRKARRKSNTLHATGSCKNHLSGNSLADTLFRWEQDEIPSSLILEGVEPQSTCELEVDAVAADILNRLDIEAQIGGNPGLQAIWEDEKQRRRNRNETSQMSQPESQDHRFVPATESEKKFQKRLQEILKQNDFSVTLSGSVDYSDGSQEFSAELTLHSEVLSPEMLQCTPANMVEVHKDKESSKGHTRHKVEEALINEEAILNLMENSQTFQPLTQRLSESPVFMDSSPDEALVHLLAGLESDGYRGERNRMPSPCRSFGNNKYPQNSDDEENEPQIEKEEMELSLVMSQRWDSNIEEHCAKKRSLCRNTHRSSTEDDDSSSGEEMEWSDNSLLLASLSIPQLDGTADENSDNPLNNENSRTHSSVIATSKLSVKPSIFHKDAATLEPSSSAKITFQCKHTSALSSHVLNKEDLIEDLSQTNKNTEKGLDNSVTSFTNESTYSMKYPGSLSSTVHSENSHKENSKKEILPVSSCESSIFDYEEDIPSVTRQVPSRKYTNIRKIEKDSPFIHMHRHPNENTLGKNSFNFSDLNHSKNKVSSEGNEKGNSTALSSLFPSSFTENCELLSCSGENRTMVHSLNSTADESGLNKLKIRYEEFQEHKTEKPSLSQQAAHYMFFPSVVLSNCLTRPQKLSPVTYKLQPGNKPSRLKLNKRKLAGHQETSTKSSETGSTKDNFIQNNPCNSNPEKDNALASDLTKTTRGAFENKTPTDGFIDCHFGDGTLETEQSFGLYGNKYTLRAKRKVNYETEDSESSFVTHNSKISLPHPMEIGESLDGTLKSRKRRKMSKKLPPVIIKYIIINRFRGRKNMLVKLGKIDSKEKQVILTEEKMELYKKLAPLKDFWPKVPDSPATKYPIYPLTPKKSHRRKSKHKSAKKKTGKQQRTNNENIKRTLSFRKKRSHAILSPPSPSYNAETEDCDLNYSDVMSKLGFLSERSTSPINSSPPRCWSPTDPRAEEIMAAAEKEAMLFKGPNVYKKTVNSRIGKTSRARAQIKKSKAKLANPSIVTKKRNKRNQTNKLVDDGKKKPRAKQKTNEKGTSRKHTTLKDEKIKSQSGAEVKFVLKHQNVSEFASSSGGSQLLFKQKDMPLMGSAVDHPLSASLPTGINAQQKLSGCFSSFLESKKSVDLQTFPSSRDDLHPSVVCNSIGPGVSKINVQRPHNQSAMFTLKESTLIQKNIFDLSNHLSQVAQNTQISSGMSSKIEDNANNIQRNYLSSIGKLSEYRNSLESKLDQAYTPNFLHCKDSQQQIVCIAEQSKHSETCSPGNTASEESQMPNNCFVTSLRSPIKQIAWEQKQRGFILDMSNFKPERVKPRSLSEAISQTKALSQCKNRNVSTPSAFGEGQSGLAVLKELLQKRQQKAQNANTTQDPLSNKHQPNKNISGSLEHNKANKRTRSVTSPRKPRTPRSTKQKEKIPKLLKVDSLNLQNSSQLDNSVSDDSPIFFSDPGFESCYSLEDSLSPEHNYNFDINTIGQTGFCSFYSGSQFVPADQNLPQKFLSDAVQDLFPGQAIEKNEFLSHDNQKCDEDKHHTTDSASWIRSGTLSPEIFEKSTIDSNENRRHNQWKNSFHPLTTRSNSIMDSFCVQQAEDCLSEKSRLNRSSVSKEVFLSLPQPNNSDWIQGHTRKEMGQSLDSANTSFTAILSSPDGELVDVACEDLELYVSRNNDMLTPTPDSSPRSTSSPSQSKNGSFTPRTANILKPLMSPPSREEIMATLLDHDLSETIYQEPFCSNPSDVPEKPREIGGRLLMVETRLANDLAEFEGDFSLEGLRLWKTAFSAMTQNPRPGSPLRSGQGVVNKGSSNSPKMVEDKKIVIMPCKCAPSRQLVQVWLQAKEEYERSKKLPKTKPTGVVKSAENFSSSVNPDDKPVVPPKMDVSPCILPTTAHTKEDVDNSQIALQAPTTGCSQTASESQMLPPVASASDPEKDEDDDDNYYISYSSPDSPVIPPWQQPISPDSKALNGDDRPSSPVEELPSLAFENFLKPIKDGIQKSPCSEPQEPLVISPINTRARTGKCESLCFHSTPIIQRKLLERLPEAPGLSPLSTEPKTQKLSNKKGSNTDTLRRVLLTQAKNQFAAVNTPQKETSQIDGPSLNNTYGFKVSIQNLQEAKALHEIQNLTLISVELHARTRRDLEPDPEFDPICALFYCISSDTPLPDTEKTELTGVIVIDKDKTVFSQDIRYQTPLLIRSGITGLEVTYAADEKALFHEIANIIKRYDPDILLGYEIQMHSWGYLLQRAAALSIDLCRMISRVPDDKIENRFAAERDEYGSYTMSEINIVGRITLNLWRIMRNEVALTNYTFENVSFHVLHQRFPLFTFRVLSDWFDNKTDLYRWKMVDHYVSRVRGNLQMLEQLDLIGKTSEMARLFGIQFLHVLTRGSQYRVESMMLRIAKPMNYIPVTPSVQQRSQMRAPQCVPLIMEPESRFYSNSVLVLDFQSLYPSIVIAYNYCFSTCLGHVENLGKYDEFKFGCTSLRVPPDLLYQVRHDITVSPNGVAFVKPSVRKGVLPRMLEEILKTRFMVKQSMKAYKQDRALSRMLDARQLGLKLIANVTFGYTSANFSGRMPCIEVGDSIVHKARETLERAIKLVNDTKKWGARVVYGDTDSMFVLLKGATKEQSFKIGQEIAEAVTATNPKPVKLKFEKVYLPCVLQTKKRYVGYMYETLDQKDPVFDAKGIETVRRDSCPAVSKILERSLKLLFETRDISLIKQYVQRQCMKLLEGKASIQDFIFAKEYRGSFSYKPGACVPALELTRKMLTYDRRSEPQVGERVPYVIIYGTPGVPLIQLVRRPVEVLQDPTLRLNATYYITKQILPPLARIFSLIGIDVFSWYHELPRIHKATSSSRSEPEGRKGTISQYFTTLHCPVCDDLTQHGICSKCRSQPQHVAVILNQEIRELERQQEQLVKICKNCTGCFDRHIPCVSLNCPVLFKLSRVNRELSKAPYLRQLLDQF
UniProt Q9UI95: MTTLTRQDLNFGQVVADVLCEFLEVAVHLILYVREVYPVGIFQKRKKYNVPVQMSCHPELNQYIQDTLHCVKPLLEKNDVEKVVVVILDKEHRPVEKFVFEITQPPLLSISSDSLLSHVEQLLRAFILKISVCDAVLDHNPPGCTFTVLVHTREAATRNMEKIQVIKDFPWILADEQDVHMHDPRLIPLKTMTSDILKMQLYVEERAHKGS
UniProt Q9UQE7: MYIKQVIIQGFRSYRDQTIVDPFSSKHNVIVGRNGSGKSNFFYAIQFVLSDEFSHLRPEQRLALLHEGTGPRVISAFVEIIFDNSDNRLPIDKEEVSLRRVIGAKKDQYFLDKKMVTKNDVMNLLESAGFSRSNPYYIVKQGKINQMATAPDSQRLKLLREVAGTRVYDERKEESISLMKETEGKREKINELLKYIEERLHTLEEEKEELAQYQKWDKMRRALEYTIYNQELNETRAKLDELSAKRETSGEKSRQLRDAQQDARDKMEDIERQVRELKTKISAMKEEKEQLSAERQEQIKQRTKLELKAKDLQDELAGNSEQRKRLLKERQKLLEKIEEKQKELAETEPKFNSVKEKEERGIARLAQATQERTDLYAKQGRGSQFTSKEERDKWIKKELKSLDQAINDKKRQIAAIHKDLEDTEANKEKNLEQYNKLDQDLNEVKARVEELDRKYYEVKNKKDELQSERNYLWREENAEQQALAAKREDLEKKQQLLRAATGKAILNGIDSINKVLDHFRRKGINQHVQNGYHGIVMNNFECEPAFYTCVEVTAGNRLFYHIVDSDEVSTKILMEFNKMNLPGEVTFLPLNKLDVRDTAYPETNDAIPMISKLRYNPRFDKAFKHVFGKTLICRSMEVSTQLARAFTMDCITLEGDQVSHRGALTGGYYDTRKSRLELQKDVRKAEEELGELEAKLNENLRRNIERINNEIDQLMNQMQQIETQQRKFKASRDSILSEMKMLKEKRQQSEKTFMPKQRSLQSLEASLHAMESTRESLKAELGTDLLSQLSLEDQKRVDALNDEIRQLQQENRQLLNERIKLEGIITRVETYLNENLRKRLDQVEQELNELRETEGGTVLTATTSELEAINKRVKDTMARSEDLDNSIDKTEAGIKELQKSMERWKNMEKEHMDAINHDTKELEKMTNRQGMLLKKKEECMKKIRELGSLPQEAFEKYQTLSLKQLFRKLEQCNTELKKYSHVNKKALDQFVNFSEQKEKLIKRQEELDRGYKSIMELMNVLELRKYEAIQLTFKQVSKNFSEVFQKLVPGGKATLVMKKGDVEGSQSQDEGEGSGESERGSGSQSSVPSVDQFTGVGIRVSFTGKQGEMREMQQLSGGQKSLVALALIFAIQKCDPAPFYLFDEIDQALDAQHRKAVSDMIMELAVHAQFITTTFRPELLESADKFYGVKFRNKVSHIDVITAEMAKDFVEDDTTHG
UniProt P49005: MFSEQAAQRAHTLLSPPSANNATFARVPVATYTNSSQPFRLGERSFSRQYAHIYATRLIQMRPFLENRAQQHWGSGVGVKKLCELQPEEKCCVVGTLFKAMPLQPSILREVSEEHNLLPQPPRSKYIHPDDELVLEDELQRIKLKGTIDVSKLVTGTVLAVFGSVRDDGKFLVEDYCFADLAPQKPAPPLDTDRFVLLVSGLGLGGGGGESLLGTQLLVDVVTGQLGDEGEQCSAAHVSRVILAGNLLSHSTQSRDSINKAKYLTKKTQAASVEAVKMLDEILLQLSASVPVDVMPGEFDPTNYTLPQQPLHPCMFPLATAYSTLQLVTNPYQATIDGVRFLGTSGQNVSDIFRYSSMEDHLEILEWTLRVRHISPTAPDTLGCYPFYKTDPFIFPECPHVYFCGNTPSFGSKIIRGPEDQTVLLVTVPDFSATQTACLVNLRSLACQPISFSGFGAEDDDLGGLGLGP
UniProt P28340: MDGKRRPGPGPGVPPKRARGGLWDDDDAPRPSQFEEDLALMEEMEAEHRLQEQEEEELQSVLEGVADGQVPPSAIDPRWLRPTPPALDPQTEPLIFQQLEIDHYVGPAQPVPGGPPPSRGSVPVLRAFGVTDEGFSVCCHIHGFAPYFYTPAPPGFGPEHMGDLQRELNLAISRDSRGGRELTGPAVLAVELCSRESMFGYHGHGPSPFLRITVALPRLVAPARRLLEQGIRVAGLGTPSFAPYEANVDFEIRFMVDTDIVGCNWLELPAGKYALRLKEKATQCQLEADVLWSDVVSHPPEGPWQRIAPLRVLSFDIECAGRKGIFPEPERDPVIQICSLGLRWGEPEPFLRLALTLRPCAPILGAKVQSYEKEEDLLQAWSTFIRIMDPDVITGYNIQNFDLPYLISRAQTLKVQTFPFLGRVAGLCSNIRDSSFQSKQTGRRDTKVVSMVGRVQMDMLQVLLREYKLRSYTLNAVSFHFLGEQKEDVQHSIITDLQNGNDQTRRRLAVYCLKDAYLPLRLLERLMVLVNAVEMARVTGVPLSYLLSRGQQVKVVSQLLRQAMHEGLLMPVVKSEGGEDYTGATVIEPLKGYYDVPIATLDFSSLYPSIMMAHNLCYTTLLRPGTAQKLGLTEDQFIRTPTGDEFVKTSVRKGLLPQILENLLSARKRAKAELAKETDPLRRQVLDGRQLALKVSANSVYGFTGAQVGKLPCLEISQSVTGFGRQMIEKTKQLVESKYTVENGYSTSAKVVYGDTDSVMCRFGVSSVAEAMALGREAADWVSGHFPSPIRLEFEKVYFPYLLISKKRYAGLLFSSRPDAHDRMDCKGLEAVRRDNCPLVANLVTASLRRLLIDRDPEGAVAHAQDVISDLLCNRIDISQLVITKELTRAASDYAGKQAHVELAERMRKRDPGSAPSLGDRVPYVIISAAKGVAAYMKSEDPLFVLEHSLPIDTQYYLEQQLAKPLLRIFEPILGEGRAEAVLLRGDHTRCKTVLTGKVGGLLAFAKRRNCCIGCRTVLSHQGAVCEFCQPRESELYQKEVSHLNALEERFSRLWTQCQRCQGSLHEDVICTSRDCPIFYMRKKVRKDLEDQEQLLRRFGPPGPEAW

[2] = molecular target: T2, FLAG-HA-SPATA5, stably expressed in HeLa S3 (human) (UniProt Q8NB90)
T2 sequence: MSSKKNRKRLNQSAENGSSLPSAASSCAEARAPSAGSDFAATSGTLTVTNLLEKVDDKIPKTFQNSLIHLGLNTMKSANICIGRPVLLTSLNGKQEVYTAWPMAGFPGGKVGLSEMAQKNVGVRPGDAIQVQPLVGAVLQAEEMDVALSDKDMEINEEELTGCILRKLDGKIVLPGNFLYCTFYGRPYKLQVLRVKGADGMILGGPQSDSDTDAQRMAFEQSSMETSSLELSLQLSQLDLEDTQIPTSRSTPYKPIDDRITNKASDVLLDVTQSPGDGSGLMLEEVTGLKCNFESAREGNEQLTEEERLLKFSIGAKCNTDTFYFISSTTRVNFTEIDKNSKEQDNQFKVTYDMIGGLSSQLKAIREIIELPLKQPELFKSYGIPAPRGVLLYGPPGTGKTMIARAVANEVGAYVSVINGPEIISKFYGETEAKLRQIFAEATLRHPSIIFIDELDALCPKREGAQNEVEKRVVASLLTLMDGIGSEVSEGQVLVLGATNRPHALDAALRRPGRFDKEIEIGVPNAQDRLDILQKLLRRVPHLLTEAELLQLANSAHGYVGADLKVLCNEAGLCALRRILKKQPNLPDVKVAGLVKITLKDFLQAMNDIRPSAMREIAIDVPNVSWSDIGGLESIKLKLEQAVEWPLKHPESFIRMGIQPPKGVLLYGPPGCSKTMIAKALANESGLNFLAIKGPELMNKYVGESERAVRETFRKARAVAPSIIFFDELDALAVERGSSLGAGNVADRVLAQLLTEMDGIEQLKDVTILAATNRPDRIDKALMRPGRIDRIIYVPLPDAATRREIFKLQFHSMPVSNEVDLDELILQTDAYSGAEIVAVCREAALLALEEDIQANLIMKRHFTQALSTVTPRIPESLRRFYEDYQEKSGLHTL

[3] = molecular target: T3, FLAG-HA-POLD3, stably expressed in HeLa S3 (human) (UniProt Q15054)
T3 sequence: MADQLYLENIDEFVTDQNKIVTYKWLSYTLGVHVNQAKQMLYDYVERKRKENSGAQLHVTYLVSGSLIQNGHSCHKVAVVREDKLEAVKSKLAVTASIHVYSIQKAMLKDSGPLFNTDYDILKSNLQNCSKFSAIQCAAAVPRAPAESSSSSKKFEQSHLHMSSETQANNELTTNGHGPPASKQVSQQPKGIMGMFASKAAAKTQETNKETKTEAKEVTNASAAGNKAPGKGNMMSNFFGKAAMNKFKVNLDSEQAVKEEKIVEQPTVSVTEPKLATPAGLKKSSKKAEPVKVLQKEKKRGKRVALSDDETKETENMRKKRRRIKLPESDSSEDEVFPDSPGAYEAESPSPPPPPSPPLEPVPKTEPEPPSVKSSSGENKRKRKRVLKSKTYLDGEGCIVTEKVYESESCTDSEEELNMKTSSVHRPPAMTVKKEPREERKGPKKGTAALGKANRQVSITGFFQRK

| Substance | binding [1] | binding [2] | binding [3] |
| --- | --- | --- | --- |
| REV3L (HeLa S3 nuclear extract) (from UniProt O60673 1-3130) |  |  | binds |
| REV7 (HeLa S3 nuclear extract) (from UniProt Q9UI95 1-211) |  |  | binds |

The next lines start with the values.

| binding [1] | binding [2] | binding [3] | Substance |
| --- | --- | --- | --- |
| binds | binds |  | SMC3 (HeLa S3 nuclear extract) (from UniProt Q9UQE7 1-1217) |
|  |  | binds | POLD2 (HeLa S3 nuclear extract) (from UniProt P49005 1-469) |
| binds | binds | binds | POLD1 (HeLa S3 nuclear extract) (from UniProt P28340 1-1107) |
